Laboratory results: the supplement of paper PMC7666118
The other results are listed elsewhere or left out.

By UniProt entry, the sequences of proteins in these tests, tags left out. Where a name states a change or a piece, a line headed by the entry shows the natural chain unless it says otherwise.
UniProt Q9H0N5: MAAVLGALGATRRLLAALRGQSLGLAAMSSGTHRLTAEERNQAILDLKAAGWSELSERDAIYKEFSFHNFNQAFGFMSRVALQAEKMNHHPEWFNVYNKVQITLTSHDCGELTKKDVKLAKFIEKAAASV
UniProt Q13393: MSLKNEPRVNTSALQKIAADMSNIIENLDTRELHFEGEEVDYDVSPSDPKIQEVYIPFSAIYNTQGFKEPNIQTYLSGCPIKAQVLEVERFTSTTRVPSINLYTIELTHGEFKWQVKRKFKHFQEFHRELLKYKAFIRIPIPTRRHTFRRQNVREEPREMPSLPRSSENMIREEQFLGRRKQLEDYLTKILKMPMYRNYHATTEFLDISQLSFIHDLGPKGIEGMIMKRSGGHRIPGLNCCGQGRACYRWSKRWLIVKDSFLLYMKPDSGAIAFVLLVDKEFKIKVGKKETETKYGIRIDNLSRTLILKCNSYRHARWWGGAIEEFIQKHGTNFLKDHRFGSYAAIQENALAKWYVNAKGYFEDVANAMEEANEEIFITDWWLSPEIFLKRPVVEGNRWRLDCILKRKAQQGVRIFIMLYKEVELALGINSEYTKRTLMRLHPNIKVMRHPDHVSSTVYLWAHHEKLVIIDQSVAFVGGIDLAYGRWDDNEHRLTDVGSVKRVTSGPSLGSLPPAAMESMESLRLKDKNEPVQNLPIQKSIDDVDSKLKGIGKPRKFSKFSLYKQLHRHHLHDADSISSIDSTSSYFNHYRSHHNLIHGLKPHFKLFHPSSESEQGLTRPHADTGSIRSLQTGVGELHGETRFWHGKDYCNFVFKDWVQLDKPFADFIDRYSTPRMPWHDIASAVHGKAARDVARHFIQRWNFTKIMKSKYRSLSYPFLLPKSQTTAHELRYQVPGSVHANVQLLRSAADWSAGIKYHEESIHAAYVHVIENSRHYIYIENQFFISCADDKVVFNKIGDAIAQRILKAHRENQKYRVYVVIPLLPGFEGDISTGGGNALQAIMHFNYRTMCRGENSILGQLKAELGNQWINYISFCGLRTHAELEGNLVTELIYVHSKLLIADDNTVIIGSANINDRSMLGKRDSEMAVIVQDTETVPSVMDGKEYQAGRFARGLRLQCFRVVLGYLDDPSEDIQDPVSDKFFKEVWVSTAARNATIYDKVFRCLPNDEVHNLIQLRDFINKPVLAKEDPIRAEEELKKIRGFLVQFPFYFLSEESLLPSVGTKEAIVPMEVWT
UniProt Q9BRP4: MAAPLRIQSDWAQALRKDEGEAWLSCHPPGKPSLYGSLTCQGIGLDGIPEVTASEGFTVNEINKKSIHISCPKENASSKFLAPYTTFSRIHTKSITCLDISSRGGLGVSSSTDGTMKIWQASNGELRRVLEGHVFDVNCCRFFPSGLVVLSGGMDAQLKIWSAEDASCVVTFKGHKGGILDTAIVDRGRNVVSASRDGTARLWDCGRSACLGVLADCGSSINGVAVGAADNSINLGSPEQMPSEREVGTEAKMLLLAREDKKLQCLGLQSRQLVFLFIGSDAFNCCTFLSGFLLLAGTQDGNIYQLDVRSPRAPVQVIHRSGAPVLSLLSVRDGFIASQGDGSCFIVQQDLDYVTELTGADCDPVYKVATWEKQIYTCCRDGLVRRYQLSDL
UniProt P19174: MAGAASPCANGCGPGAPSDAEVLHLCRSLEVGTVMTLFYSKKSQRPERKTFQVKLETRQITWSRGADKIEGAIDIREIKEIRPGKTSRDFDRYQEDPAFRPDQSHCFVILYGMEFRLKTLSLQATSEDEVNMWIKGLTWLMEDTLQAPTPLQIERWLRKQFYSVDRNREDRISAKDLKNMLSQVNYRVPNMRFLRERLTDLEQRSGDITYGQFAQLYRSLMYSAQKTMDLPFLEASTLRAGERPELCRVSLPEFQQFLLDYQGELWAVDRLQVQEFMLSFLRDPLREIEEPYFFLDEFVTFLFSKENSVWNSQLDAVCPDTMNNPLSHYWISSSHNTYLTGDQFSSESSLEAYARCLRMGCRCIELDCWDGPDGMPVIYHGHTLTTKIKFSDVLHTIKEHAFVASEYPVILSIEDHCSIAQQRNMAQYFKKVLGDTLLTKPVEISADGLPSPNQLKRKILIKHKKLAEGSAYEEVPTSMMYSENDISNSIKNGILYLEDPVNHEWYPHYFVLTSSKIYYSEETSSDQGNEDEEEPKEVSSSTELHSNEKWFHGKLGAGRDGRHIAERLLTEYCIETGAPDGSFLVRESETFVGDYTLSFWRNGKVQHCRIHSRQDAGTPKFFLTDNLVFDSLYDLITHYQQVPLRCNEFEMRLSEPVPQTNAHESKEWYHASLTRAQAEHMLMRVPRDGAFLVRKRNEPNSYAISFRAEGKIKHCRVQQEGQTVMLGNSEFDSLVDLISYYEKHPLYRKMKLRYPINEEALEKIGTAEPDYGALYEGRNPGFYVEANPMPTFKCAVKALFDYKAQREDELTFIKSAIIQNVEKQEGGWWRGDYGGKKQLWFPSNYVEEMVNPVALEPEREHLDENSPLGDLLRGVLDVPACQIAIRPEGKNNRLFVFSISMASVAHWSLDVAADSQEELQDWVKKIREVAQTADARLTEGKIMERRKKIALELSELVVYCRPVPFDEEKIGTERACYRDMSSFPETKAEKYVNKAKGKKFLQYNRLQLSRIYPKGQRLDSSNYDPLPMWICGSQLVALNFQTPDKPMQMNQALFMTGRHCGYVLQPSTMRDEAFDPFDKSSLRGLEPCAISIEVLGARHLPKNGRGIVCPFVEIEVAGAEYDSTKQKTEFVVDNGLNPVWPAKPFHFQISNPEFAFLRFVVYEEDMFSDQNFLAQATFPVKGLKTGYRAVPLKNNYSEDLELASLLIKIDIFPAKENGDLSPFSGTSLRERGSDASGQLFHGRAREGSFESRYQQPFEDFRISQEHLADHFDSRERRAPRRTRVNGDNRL
UniProt P16885: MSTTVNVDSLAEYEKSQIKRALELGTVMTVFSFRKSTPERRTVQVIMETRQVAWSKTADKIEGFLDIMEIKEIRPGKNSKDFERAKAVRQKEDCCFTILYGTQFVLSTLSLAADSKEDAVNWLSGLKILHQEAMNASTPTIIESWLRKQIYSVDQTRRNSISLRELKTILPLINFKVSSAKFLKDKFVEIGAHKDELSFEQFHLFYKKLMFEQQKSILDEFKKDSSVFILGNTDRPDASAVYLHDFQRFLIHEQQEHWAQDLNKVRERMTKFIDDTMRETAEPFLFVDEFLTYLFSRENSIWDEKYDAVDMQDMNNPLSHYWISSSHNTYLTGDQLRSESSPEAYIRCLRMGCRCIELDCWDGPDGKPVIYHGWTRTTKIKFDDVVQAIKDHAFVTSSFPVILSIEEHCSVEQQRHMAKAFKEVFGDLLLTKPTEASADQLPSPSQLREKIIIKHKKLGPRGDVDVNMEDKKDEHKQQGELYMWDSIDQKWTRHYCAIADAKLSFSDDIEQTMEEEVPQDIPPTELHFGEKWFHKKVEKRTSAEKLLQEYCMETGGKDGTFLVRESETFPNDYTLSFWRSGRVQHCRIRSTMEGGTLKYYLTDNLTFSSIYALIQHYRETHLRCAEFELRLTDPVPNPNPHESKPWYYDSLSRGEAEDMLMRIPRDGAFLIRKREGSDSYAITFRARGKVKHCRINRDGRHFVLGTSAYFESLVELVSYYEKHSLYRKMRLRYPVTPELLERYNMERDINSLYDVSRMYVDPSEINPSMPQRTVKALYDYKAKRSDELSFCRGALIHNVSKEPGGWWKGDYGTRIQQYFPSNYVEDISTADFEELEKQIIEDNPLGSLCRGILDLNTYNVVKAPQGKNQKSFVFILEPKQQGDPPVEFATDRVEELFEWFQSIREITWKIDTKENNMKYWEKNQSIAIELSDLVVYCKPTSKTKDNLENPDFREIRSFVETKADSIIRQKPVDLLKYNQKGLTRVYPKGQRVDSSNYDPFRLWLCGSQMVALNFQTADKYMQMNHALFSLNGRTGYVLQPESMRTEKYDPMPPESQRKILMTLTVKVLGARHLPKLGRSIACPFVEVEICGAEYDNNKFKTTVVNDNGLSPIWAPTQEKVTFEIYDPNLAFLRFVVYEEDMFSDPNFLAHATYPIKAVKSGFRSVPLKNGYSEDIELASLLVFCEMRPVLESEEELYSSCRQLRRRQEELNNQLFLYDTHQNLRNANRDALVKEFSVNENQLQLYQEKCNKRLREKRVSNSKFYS
UniProt Q86U42: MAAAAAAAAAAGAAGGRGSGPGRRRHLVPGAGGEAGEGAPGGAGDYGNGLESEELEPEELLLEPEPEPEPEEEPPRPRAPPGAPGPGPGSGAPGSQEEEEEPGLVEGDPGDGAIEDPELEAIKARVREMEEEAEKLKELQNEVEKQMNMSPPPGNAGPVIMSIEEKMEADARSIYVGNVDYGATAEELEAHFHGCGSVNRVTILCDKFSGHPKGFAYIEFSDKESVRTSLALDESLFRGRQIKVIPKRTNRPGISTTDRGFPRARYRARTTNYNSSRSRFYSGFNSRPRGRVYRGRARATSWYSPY
UniProt Q96KB5: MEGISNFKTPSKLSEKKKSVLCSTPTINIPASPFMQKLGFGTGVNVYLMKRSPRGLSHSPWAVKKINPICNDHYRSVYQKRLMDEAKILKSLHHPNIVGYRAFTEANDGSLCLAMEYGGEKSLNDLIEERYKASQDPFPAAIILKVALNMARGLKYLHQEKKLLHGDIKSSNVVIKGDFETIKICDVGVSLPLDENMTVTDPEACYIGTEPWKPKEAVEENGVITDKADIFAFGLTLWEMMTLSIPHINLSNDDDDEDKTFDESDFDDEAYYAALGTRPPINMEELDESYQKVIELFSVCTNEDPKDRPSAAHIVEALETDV
UniProt P08237: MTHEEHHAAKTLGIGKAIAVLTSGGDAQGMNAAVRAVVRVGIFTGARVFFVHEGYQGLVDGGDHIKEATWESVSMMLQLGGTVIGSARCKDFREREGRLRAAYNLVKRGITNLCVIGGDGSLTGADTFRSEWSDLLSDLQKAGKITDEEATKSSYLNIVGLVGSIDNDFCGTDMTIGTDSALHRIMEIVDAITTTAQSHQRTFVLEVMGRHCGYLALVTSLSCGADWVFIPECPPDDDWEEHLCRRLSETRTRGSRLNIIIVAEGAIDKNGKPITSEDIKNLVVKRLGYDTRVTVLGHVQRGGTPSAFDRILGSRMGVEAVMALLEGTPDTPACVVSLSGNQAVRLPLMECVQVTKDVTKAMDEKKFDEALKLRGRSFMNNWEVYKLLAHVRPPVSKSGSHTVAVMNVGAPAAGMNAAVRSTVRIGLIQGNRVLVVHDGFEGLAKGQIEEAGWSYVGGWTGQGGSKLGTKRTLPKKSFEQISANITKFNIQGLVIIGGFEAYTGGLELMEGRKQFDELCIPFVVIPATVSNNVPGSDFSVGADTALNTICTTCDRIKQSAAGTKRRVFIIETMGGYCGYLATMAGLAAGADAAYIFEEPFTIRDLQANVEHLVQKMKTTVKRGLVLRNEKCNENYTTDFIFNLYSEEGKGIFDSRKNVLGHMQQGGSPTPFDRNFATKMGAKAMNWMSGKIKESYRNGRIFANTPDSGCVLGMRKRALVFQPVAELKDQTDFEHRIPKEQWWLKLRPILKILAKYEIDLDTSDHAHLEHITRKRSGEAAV
UniProt Q02809: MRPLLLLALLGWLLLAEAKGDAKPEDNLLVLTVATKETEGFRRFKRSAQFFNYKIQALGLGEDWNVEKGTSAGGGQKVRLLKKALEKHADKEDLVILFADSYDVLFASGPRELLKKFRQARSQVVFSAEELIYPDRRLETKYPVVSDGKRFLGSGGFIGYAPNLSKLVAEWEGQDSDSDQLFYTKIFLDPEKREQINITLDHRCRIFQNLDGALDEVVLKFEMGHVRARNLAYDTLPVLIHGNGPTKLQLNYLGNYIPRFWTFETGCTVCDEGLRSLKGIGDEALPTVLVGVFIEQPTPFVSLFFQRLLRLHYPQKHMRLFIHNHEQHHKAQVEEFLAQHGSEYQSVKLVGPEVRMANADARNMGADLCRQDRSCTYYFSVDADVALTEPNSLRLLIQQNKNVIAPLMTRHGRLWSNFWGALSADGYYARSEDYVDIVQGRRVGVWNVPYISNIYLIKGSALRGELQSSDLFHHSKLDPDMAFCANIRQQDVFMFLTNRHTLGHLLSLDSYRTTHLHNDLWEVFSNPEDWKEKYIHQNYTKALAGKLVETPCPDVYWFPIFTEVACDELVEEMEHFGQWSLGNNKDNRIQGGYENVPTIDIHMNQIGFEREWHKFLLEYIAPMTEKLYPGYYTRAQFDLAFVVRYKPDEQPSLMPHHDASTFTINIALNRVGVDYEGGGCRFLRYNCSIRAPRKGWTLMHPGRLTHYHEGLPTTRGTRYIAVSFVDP
UniProt Q9NXJ5: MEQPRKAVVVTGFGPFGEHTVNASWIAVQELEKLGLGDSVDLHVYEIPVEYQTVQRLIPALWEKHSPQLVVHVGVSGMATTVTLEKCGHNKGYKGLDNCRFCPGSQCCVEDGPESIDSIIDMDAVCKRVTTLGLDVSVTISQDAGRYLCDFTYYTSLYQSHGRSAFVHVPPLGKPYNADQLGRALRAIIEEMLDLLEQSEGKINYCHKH

compound: COc1ccc(Cn2ccc3cc(C)c(C(=O)NO)cc32)cc1; test: dose-dependent thermal stabilisation call (2D-TPP, DLPTP, 10% FDR) (binary (1 = stabilised)); higher = stabilised by the compound; settings: system: HL-60 intact cells; concentration range 0.04-10 µM
Method: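 2D thermal proteome profiling in intact HL-60 cells treated with BRD-3811 (0, 0.04, 0.29, 2, 10 uM) for 90 min at 37 C, then heated 3 min at one of 12 temperatures (42-63.9 C). Soluble protein was quantified by TMT10 MS. The value is the DLPTP call of the paper: dose-dependent thermal stabilisation over all temperatures at 10% FDR (F-test of a dose-response against a flat model); one experiment, one call per tested protein.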

Target	dose-dependent thermal stabilisation call
PCBD2 (UniProt Q9H0N5)	inactive: 0
PITRM1 (UniProt Q5JRX3)	inactive: 0
OTUD6B (UniProt Q8N6M0)	inactive: 0
PEX6 (UniProt Q13608)	inactive: 0
PLD1 (UniProt Q13393)	inactive: 0
PAAF1 (UniProt Q9BRP4)	inactive: 0
PGS1 (UniProt Q32NB8)	inactive: 0
PLCG1 (UniProt P19174)	inactive: 0
OPA3 (UniProt Q9H6K4)	inactive: 0
PLCG2 (UniProt P16885)	inactive: 0
PDK1 (UniProt Q15118)	inactive: 0
PEX1 (UniProt O43933)	inactive: 0
PGAM5 (UniProt Q96HS1)	inactive: 0
PABPN1 (UniProt Q86U42)	inactive: 0
PAXIP1 (UniProt Q6ZW49)	inactive: 0
PDE12 (UniProt Q6L8Q7)	inactive: 0
PDCD6IP (UniProt Q8WUM4)	inactive: 0
PBK (UniProt Q96KB5)	inactive: 0

Target	dose-dependent thermal stabilisation call
PFKM (UniProt P08237)	inactive: 0
OXA1L (UniProt Q15070)	inactive: 0
PIGA (UniProt P37287)	inactive: 0
PARN (UniProt O95453)	inactive: 0
PLOD1 (UniProt Q02809)	inactive: 0
PGPEP1 (UniProt Q9NXJ5)	inactive: 0
PBXIP1 (UniProt Q96AQ6)	inactive: 0
OSBPL1A (UniProt Q9BXW6)	inactive: 0
PAK1IP1 (UniProt Q9NWT1)	inactive: 0
OSBPL8 (UniProt Q9BZF1)	inactive: 0
OSTC (UniProt Q9NRP0)	inactive: 0
PGGT1B (UniProt P53609)	inactive: 0
P2RY2 (UniProt P41231)	inactive: 0
PCTK1 (UniProt Q00536)	inactive: 0
OSTF1 (UniProt Q92882)	inactive: 0
PITPNM1 (UniProt O00562)	inactive: 0
P2RY11 (UniProt Q96G91)	inactive: 0
PICK1 (UniProt Q9NRD5)	inactive: 0

Taken from the listing (three entries):
Target	dose-dependent thermal stabilisation call
OXA1L (UniProt Q15070)	inactive: 0
PIGA (UniProt P37287)	inactive: 0
PARN (UniProt O95453)	inactive: 0
